Measured values reported in patent US5571685A (priority 1992, dated 1996).

Sequences of proteins named here, by UniProt entry; tags and fusion partners are left off.
UniProt Q51990, entry or part of it: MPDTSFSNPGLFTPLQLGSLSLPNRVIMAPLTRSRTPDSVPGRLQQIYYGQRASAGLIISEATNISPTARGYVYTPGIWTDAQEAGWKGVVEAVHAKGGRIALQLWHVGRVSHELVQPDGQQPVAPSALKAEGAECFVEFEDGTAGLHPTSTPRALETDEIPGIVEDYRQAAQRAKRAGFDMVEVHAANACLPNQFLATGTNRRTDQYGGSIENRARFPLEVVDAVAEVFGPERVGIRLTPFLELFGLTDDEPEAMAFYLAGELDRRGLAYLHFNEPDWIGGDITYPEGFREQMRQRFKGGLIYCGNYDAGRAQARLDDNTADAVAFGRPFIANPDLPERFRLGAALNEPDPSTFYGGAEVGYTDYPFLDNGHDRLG

Molecular target: morphinone reductase (Pseudomonas putida, UniProt Q51990)

CN1CC[C@]23c4c5ccc(O)c4O[C@H]2[C@@H](O)C=C[C@H]3[C@H]1C5 [morphine] was tested, and the “Enzyme activity against compound as substrate” value was “No activity”.
